PubChem BioAssay AID540256 (National Center for Advancing Translational Sciences (NCATS), 2011)
The campaign covered roughly 300,000 compounds. About 3,700 (1.2%) were called active. Inconclusive means that the source gave no clear call. Such entries were picked first, then a sample of the others. Calls come from the whole dose curve; tested in HEK293 cells. A potency beside an inconclusive call is a rough fit, not a confirmed value.

Test: qHTS for Inhibitors of binding or entry into cells for Lassa Virus; note: nearly all actives have a fitted effect of over 50% in size
Conditions: Lassa virus pseudotype entry inhibition, cell reporter; series mostly up to 37.9 µM
Potency is the fitted concentration of half-maximal effect.

| Compound | Potency |
| --- | --- |
| CCCCCCCCOC(=O)c1cc([N+](=O)[O-])c(Sc2ncnc3nc[nH]c23)c([N+](=O)[O-])c1 | active: 11.2 µM |
| CC1CCc2sc(C(=O)OCC(=O)NCc3ccccc3)cc2C1 (stereo not drawn) | active: 10 µM |
| CCN(C(=O)CCc1nc(-c2ccc(C)cc2)no1)c1cc(C)ccc1C | inactive |
| COc1ccc(CN2CCC(C(=O)Nc3ccc(Oc4ccccc4)nc3)CC2)cc1F | inconclusive: 11.2 µM [inhibitor, partial curve, poor fit] |
| O=C(Nc1ccccc1)N1CCc2ccccc2C1 | inconclusive: 35.5 µM [inhibitor, single point] |
| Cc1[nH]c2ccccc2c1-c1nc2ccccc2[nH]1 | inconclusive: 35.5 µM [activator, single point] |
| Cc1nc(Nc2cccc(O)c2)c2c3c(sc2n1)CCC3 | inconclusive: 11.2 µM [inhibitor, partial curve, poor fit] |
| O=C(Nc1ccc(Br)cn1)c1coc(=O)c(Br)c1 | inactive |
| CN1CC(c2ccc(Cl)c(Cl)c2)[C@@]2(COc3ccccc3C2=O)[C@@]12C(=O)Nc1ccccc12 (stereo partly drawn) | inconclusive: 29.1 µM [inhibitor, single point] |
| COc1cc2c(cc1NC(=O)COc1cc(C)ccc1C)oc1ccccc12 | inactive |
| CCCOC(=O)c1c(C)oc2c1cc(NS(=O)(=O)c1ccc(OCC)cc1)c1ccccc12 | inconclusive: 2.82 µM [inhibitor, partial curve] |
| CCOC(=O)c1c(-c2ccc(OC)cc2)oc2ccc(OC(=O)N(C)C)cc12 | inconclusive: 29.1 µM [inhibitor, single point] |
| COc1cccc(OCC(O)CN2CCC(Cc3ccccc3)CC2)c1 (stereo not drawn) | inactive |
| Cc1cccc(N2CCN(C(=O)c3cn(C4CCCCC4)c(=O)c4c3c3ccccc3n4C)CC2)c1C | inconclusive: 2.51 µM [inhibitor, full curve, poor fit] |
| COc1ccc(/C=C2\Sc3ccc(C(=O)N4CCCC4)cc3N(C)C2=O)cc1OC | inconclusive: 31.6 µM [inhibitor, partial curve, poor fit] |
| Cc1cc2oc(=O)cc(CN(C)Cc3ccccc3)c2cc1Cl | inconclusive: 8.87 µM [activator, full curve, poor fit] |
| Cc1cccc(NC(=O)C2CCCN2C(=O)OCC(C)C)c1 (stereo not drawn) | inconclusive: 29.1 µM [activator, single point] |
| Clc1ccc2c(c1)C(N1CCNCC1)Cc1ccccc1S2 (stereo not drawn) | inconclusive: 35.5 µM [inhibitor, single point] |
| C/C(=N/NC(=O)c1ccc(Br)o1)c1ccncc1 | inconclusive: 0.447 µM [inhibitor, partial curve, poor fit] |
| CCOc1cc(CNCc2cccs2)cc(Br)c1OCC | inconclusive: 35.5 µM [inhibitor, single point] |
| CCOC(=O)c1cc(CC)sc1/N=C/c1c(O)ccc2ccccc12 | inconclusive: 31.6 µM [inhibitor, single point] |
| CCN1CCC(N(Cc2ccc3c(c2)OCO3)C(=O)Nc2cc(Cl)ccc2C(=O)OC)CC1 | inconclusive: 12.6 µM [inhibitor, partial curve] |
| Cc1cccc(NC(=O)C2CCCN(S(=O)(=O)c3cccc4nonc34)C2)c1C (stereo not drawn) | inactive |

| Compound | Potency |
| --- | --- |
| O=C(c1ccc(S(=O)(=O)Nc2ccccc2F)cc1)N1CCN(c2ccccc2O)CC1 | inconclusive: 35.5 µM [inhibitor, single point] |
| CC(=O)c1cccc(NC(=O)CCNC(=O)c2cccc(C)c2)c1 | inactive |
| CCOCCCNC(=O)C1CCCN(Cc2nc(-c3ccc(CC)cc3)oc2C)C1 (stereo not drawn) | inactive |
| Cc1cc(=O)[nH]c(/N=C(\N)Nc2cccc3ccccc23)n1 | inconclusive: 6.31 µM [inhibitor, single point] |
| Cc1cccc(S(=O)(=O)Nc2cccc(-c3cn4ccsc4n3)c2)c1 | inconclusive: 35.5 µM [inhibitor, single point] |
| CCS(=O)(=O)c1ccc2c(c1)N(S(C)(=O)=O)CC(C(=O)NN)O2 (stereo not drawn) | inactive |
| Cc1nc(CC(=O)Nc2ccc(C)c(C)c2)cs1 | inconclusive: 35.5 µM [activator, single point] |
| CCc1ccc(-n2c(SC(CC)C(=O)N(CC)CC)nc3n[nH]c(C)c3c2=N)cc1 (stereo not drawn) | inactive |
| Cc1c(C)n(Cc2ccccc2)c2ccc(C(=O)NC(C)c3ccccc3)cc12 (stereo not drawn) | inconclusive: 5.62 µM [inhibitor, partial curve, poor fit] |
| Cc1ccc(C(=O)CSC2=C(C#N)C(c3ccco3)C3=C(CC(C)(C)CC3=O)N2)cc1 (stereo not drawn) | inconclusive: 0.651 µM [activator, partial curve, poor fit] |
| CC(C)(CO)CNC(=O)c1ccc2[nH]c(O)c(N=Nc3ccc(S(N)(=O)=O)cc3)c2c1 | active: 1.58 µM |
| O=C(Nc1ccccn1)C1CCN(S(=O)(=O)c2cccs2)CC1 | inactive |
| CCOC(=O)c1ccc(NC(=S)NC2CC(C)(C)NC(C)(C)C2)cc1 | inconclusive: 29.1 µM [inhibitor, single point] |
| COc1ccc(C2=NO[C@@H]3[C@@H]4C[C@@H]([C@H]5C(=O)N(C)C(=O)[C@@H]45)[C@H]23)c(OC)c1 | inconclusive: 35.5 µM [activator, single point] |
| Cc1cccc(NC(=O)CC2C(=O)NC3CCCCC3N2C(=O)c2ccccc2Cl)c1 (stereo not drawn) | inconclusive: 15.8 µM [inhibitor, single point] |
| N#CC1=C(N)OC2=C(C(=O)CCC2)C12CCC1(CC2)OCCO1 | inactive |
| Cc1ccc(Cn2nc(C)c(NC(=O)c3cc(-c4ccc5c(c4)OCO5)on3)c2C)cc1 | inactive |
| Oc1cc2c(cc1O)CN(C(=S)NCCc1ccc(Cl)cc1)CCC2 | active: 11.6 µM |
| Cn1nnc2cc(C(=O)NC3CCCCC3)ccc21 | inconclusive: 5.8 µM [activator, full curve, poor fit] |
| O=C(CN(c1cccc(C(F)(F)F)c1)S(=O)(=O)c1ccc(Cl)c([N+](=O)[O-])c1)NCc1ccccc1 | inconclusive: 29.1 µM [inhibitor, single point] |
| Cc1c(Cl)cccc1-n1ncc(C(=O)N2CCc3ccccc3C2)c1C1CCN(C(=O)OC(C)(C)C)CC1 | inconclusive: 15.8 µM [inhibitor, single point] |
| CCN(CC)c1ccc(-c2nn3c(-c4n[nH]c5c4CCC5)nnc3s2)cc1 | inconclusive: 11.2 µM [inhibitor, partial curve, poor fit] |
| COc1ccc(C(=O)CSc2nccn2C)cc1 | inconclusive: 1.58 µM [activator, partial curve, poor fit] |

| Compound | Potency |
| --- | --- |
| C=CCOc1ccc(C(=O)c2ccccc2)c(OCC(=O)NC2(C#N)CCCC2)c1 | inconclusive: 35.5 µM [inhibitor, single point] |
| COC(=O)c1ccc(COC(=O)c2cccnc2Cl)cc1 | inactive |
| CCCNC1=C(C)C(=O)C2=C(C1=O)C(COC(N)=O)[C@]1(OC)C3NC3CN21 (stereo partly drawn) | inconclusive: 7.08 µM [inhibitor, partial curve, poor fit] |
| C=CCN(C(=O)CNS(=O)(=O)c1ccccc1)C(C(=O)NCCOC)c1ccncc1 (stereo not drawn) | inconclusive: 0.158 µM [inhibitor, single point] |
| O=C(CSc1nnc(-c2cccnc2)n1-c1ccccc1)NCc1ccc2c(c1)OCO2 | inactive |
| COc1ccc(NC(=O)NNC(=O)COc2ccc3cc(Br)ccc3c2)cc1 | inconclusive: 5.01 µM [activator, full curve, poor fit] |
| Cc1ccc(Nc2nnns2)cc1C | inactive |
| CCOCCCNC(=O)/C(C#N)=C/c1ccc([N+](=O)[O-])o1 | inconclusive: 35.5 µM [inhibitor, single point] |
| O=[N+]([O-])c1ccc(O)c(N=Cc2sc3ccccc3c2O)c1 | inconclusive: 35.5 µM [inhibitor, single point] |
| CN(C)S(=O)(=O)c1ccc(Cl)c(C(=O)NC2=NCCS2)c1 | inconclusive: 35.5 µM [activator, single point] |
| COc1cc2cc(C(=O)N/N=C/c3cccc(OC)c3OC)[nH]c2cc1OC | inactive |
| COc1ccc(N2CCN(C(CNC(=O)CC(C)C)c3ccc4c(c3)OCO4)CC2)cc1 (stereo not drawn) | inactive |
| CCCN1CCN(C(=S)Nc2ccc(S(N)(=O)=O)cc2)CC1 | inconclusive: 35.5 µM [activator, single point] |
| CN(C(=O)CSc1nnc(Nc2ccccc2)s1)c1c(N)n(Cc2ccccc2)c(=O)[nH]c1=O | inactive |
| Cc1cccc(NC(=O)C2(C)CC3c4ccccc4C2c2ccccc23)c1C (stereo not drawn) | inconclusive: 0.891 µM [activator, partial curve, poor fit] |
| COc1ccc(CNC(=O)c2ccc(CNc3c(NC4CCCCC4)c(=O)c3=O)cc2)cc1 | inactive |
| COc1cccc(C2CCCCN2Cc2nc(-c3ccc(C)o3)oc2C)c1 (stereo not drawn) | inactive |
| Cc1ccc(-c2n[nH]c(=S)n2/N=C/c2ccc(C)o2)cc1 | inconclusive: 7.94 µM [inhibitor, partial curve, poor fit] |
| CCOC(=O)NC1CCc2cc(OC)c(OC)c(OC)c2-c2ccc(SC)c(=O)cc21 (stereo not drawn) | inconclusive: 0.1 µM [inhibitor, full curve, poor fit] |
| O=C(C[n+]1cc(Br)cc(Br)c1)c1cccc([N+](=O)[O-])c1 | inactive |
| O=C1N(Cc2cccnc2)C[C@@H]2C[C@@H](c3cccc(OCc4ccccc4)c3)N3CCC[C@@]123 | inactive |
| CCc1c(C)sc2c1CCN(C(=O)Nc1ccccc1C(F)(F)F)C2c1ccccc1 (stereo not drawn) | inactive |

A run of entries from the list above, for reference:

| Compound | Potency |
| --- | --- |
| Cc1cccc(NC(=O)C2CCCN(S(=O)(=O)c3cccc4nonc34)C2)c1C (stereo not drawn) | inactive |
| O=C(c1ccc(S(=O)(=O)Nc2ccccc2F)cc1)N1CCN(c2ccccc2O)CC1 | inconclusive: 35.5 µM [inhibitor, single point] |
| CC(=O)c1cccc(NC(=O)CCNC(=O)c2cccc(C)c2)c1 | inactive |
| CCOCCCNC(=O)C1CCCN(Cc2nc(-c3ccc(CC)cc3)oc2C)C1 (stereo not drawn) | inactive |
| Cc1cc(=O)[nH]c(/N=C(\N)Nc2cccc3ccccc23)n1 | inconclusive: 6.31 µM [inhibitor, single point] |
| Cc1cccc(S(=O)(=O)Nc2cccc(-c3cn4ccsc4n3)c2)c1 | inconclusive: 35.5 µM [inhibitor, single point] |
| CCS(=O)(=O)c1ccc2c(c1)N(S(C)(=O)=O)CC(C(=O)NN)O2 (stereo not drawn) | inactive |
| Cc1nc(CC(=O)Nc2ccc(C)c(C)c2)cs1 | inconclusive: 35.5 µM [activator, single point] |
| CCc1ccc(-n2c(SC(CC)C(=O)N(CC)CC)nc3n[nH]c(C)c3c2=N)cc1 (stereo not drawn) | inactive |
| Cc1c(C)n(Cc2ccccc2)c2ccc(C(=O)NC(C)c3ccccc3)cc12 (stereo not drawn) | inconclusive: 5.62 µM [inhibitor, partial curve, poor fit] |
| Cc1ccc(C(=O)CSC2=C(C#N)C(c3ccco3)C3=C(CC(C)(C)CC3=O)N2)cc1 (stereo not drawn) | inconclusive: 0.651 µM [activator, partial curve, poor fit] |
| CC(C)(CO)CNC(=O)c1ccc2[nH]c(O)c(N=Nc3ccc(S(N)(=O)=O)cc3)c2c1 | active: 1.58 µM |
